Assay results as given in PubChem BioAssay AID720504 (National Center for Advancing Translational Sciences (NCATS), 2013).
About 10,000 (2.8%) of roughly 360,000 compounds were called active. The inconclusive results got no clear call from the source; some entries with a clear call stand among them for comparison. Calls come from the whole dose curve; as a rule, active = well fitted inhibition curve with a large enough effect; inconclusive = small, poorly fitted or top-dose-only effect; inactive = flat fitted curve, though single readings scatter. Potencies beside an inconclusive call are fits to weak or partial responses and may not hold up.
% is set by controls: 0 for no effect and ±100 for the full control effect; potency is the fitted concentration of half-maximal effect.
Note: nearly all actives have a fitted effect of over 65% in size.
Throughout, for max response, negative = inhibition: series mostly up to about 57 µM.

Chains of the proteins cited; added tags and fusions are not shown.
UniProt P53350, whole entry, looked up: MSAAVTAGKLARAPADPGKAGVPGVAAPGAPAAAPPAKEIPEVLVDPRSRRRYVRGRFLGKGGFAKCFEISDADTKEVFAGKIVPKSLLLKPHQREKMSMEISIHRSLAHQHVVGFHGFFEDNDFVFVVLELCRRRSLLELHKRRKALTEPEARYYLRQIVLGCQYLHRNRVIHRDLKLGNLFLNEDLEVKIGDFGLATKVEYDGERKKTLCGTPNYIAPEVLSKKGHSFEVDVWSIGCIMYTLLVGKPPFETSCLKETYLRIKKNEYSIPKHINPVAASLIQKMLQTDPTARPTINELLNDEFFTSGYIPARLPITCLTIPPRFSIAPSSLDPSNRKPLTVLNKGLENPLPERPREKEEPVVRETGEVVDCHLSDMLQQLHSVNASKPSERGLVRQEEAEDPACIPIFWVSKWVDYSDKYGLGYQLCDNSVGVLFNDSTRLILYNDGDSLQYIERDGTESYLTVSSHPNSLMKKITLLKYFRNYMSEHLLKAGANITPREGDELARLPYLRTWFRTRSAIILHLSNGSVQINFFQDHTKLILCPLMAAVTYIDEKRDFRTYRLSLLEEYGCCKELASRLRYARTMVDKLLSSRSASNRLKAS

These molecules were tested against Serine/threonine-protein kinase PLK1 (Homo sapiens) (UniProt P53350) (assay: qHTS for Inhibitors of PLK1-PDB (polo-like kinase 1 - polo-box domain): Primary Screen). Conditions: Plk1 PBD binding of FITC phosphopeptide, fluorescence polarization.
In the case of `Cc1cccc(NC(=O)CCn2cnnn2)c1`, the Potency was inconclusive: 18.9 µM [inhibitor, partial curve]. `Cc1noc(C)c1S(=O)(=O)N1CCCC(C(=O)NCCc2ccccc2)C1` (configuration not stated) was tested, and the Potency was inconclusive: 13.4 µM [inhibitor, partial curve]. In the case of `CCOC(=O)c1ccoc1CSCc1ccc(C(=O)OC)o1`, the Potency was active: 26.7 µM. With `O=C(O)c1ccc(O)c(N2C(=O)Nc3ccccc3N2O)c1` the max response, negative = inhibition was inactive: -7.61%. In the case of `CCCCSc1nc2c(cnn2-c2ccc(C)c(C)c2)c(=O)[nH]1`, the max response, negative = inhibition was inactive: -11%. For `O=C(COC(=O)CCSc1ccccc1)Nc1ccccc1Br`, the Potency was inconclusive: 23.8 µM [inhibitor, partial curve]. In the case of `Cc1cccc(N2CCN(C(=O)c3ccc(NC4=NC5CS(=O)(=O)CC5S4)cc3)CC2C)c1` (configuration not stated), the Potency was active: 23.8 µM. In the case of `COc1ccc(-c2nnc(SCc3ccccn3)n2C)cc1`, the Potency was active: 29.9 µM. With `CC(=O)c1ccc(NC(=O)CSc2ccc(-c3ccc4c(c3)OCO4)nn2)cc1` the max response, negative = inhibition was inactive: 3.56%. In the case of `Cc1ccc(SCC(=O)NNC(=O)CCS(=O)(=O)c2ccccc2)cc1`, the max response, negative = inhibition was inactive: 1.7%. `NC(=O)c1ncn([C@@H]2O[C@H](CNCc3ccc(OCC(=O)Nc4ccccn4)cc3)[C@@H](O)[C@H]2O)n1` was tested, and the max response, negative = inhibition was inactive: -5.41%. In the case of `Brc1ccc(-c2csc3ncnc(-n4nnc5ccccc54)c23)cc1`, the max response, negative = inhibition was inactive: -3.67%. For `S=c1[nH]nc(-c2ccco2)n1/N=C/C(Cl)=C/c1ccccc1`, the Potency was inconclusive: 26.7 µM [inhibitor, single point]. In the case of `COc1ccc(/C=C2/SC(=O)N(NS(=O)(=O)c3ccccc3)C2=S)cc1OC`, the Potency was inconclusive: 23.8 µM [inhibitor, partial curve]. In the case of `COc1ccc(C(=O)OCC(=O)NC(=O)NC2CCCC2)cc1OC`, the max response, negative = inhibition was inactive: 4.45%. With `Cc1ccc(CSc2nnc(-c3ccncc3)n2C)cc1` the max response, negative = inhibition was inactive: 3.84%. In the case of `COc1ccc(OC)c(CNC(=O)Cc2c(C(=O)O)[nH]c3ccc(Cl)cc23)c1`, the Potency was inconclusive: 26.7 µM [inhibitor, partial curve]. With `Cc1ccc(NS(=O)(=O)c2ccc(N/N=C/c3ccccc3OCC(=O)O)c([N+](=O)[O-])c2)c(C)c1` the Potency was inconclusive: 23.8 µM [inhibitor, partial curve]. In the case of `O=C(C[n+]1cc(Br)cc2ccccc21)c1ccc(F)cc1`, the max response, negative = inhibition was inconclusive: -35.3% [inhibitor]. In the case of `Cc1ccc(CN2C(=O)N/C(=C/c3ccc(-c4ccc(C(=O)O)cc4)o3)C2=O)cc1`, the Potency was inconclusive: 42.3 µM [inhibitor, single point]. In the case of `CCCCOc1cccc(C(=O)NC(=S)Nc2cccc(C(F)(F)F)c2)c1`, the max response, negative = inhibition was inactive: -5.26%. `Cc1cccc(NC(=O)CN2C(=O)S/C(=C\c3cccn3-c3cccc(C(=O)O)c3)C2=O)c1` was tested, and the Potency was inconclusive: 16.8 µM [inhibitor, partial curve]. `COC(=O)c1ccc2nc(-c3ccco3)c(Cc3ccccc3C(F)(F)F)n2c1` was tested, and the max response, negative = inhibition was inconclusive: -32.8% [inhibitor]. For `Cc1cc(C(=O)NCC2CCCO2)sc1C` (configuration not stated), the max response, negative = inhibition was inactive: -12.4%. For `COc1ccc(NC(=O)n2nc(OC(=O)c3cccs3)cc2N)cc1`, the Potency was inconclusive: 23.8 µM [inhibitor, partial curve]. For `O=S(=O)(CCSc1nc2ccccc2o1)c1nc2ccccc2s1`, the Potency was inconclusive: 21.2 µM [inhibitor, partial curve]. In the case of `CC(C)=NOc1cc(NC(=O)CCl)cc([N+](=O)[O-])c1`, the Potency was inconclusive: 26.7 µM [inhibitor, partial curve]. In the case of `CSC(=NC#N)N1CCN(c2c(C)cccc2C)CC1`, the Potency was inconclusive: 18.9 µM [inhibitor, partial curve]. In the case of `Cc1ccc(NC(=O)c2cc(N(C)C)ccc2[P+](=O)O)cc1`, the max response, negative = inhibition was inactive: -1.78%. `O=C(CSc1cccc[n+]1[O-])Nc1ccc([N+](=O)[O-])cc1Cl` was tested, and the max response, negative = inhibition was inactive: -1.71%. For `Cc1nc(SCC(=O)Nc2ccc3c(c2)OCCO3)nc(C)c1C`, the Potency was inconclusive: 23.8 µM [inhibitor, partial curve]. `COc1ccccc1NC(=O)CSc1nc2c(sc3ccccc32)c(=O)n1CCN(C)C` was tested, and the Potency was inconclusive: 16.8 µM [inhibitor, partial curve]. In the case of `CC(C)c1nc(=S)c2ccccc2[nH]1`, the Potency was inconclusive: 29.9 µM [inhibitor, partial curve]. With `CCc1ccc(Nc2c([N+](=O)[O-])c(=O)oc3ccccc23)cc1` the max response, negative = inhibition was inactive: -15.2%. `COc1ccc(Nc2nc3ccccc3nc2NS(=O)(=O)c2ccc(NC(C)=O)cc2)cc1` was tested, and the Potency was inconclusive: 67 µM [inhibitor, partial curve]. For `O=C(O)Cc1sc(Nc2ccc(Cl)cc2)nc1-c1cccs1`, the Potency was inconclusive: 18.9 µM [inhibitor, single point]. With `Cc1ccccc1Cn1c(CN2CCc3ccccc3C2)nc2c1c(=O)n(C)c(=O)n2C` the Potency was inconclusive: 26.7 µM [inhibitor, single point]. For `Cc1snc(SCc2ccc(Cl)cc2)c1C#N`, the Potency was inconclusive: 23.8 µM [inhibitor, partial curve]. `Cn1cc(/C=C2/SC(=O)N(CC(=O)Nc3ccc4c(c3)OCO4)C2=O)c2ccccc21` was tested, and the max response, negative = inhibition was inactive: -1.7%. For `CCC1=NN2C(=N)/C(=C\c3cccn3-c3cccc(Cl)c3)C(=O)N=C2S1`, the Potency was inconclusive: 23.8 µM [inhibitor, single point]. For `CC1CCc2c(sc(NC(=O)COC(=O)c3ccc(O)cc3)c2C#N)C1` (configuration not stated), the Potency was inconclusive: 33.6 µM [inhibitor, partial curve]. For `O=C(Cn1cc(COc2c(F)c(F)cc(F)c2F)nn1)c1ccc(O)cc1`, the Potency was inconclusive: 26.7 µM [inhibitor, single point]. For `O=[N+]([O-])c1nn(-c2ccc(Cl)cc2)n(O)c1=NCc1cccnc1`, the max response, negative = inhibition was inactive: -3.32%. For `Cc1ccc(-n2cccc2/C=C2/C(=N)N3C(=NC2=O)SN=C3S(C)(=O)=O)cc1Cl`, the Potency was active: 26.7 µM. For `O=C1COc2ccc(S(=O)(=O)N3CCc4ccccc43)cc2N1`, the Potency was inconclusive: 23.8 µM [inhibitor, partial curve]. With `COc1ccc(C(=O)/C=C/Sc2nc3ccccc3o2)cc1` the Potency was active: 0.752 µM. For `Cc1oc(-c2ccccc2)nc1C(=O)N1CCN(c2ccc(F)cc2)CC1`, the Potency was active: 29.9 µM. `CC(=O)Nc1ccc(NC(=O)c2ccccc2S(=O)(=O)c2ccc([N+](=O)[O-])cc2)cc1` was tested, and the Potency was active: 15 µM. With `Cc1ccc(NS(=O)(=O)c2ccc(C(=O)NCc3cccnc3)cc2)cc1` the max response, negative = inhibition was inactive: -7.57%. In the case of `Cc1ccc2oc(C(=O)N(C)Cc3ccc(C)o3)c(C)c2c1`, the Potency was inconclusive: 26.7 µM [inhibitor, partial curve, poor fit]. `CC(=O)N1c2ccc(S(=O)(=O)NCC3CCC(C(=O)Nc4cccc(C)n4)CC3)cc2CC1C` (configuration not stated) was tested, and the Potency was inconclusive: 26.7 µM [inhibitor, single point]. With `O=C1c2ccccc2C(=O)N1CCC(c1ccc(F)cc1)c1ccco1` (configuration not stated) the max response, negative = inhibition was inactive: -23%. In the case of `O=C(c1ccc2c(c1)OCO2)[C@@H]1[C@@H]2C(=O)N(C3CCCCC3)C(=O)[C@@H]2C2c3ccccc3C=CN21` (some centres not stated), the max response, negative = inhibition was inactive: -9.78%. `Cc1cc(/C=C2/C(=N)N3C(=NC2=O)SN=C3S(C)(=O)=O)c(C)n1-c1ccccc1` was tested, and the Potency was active: 26.7 µM. For `O=C(N/N=C/c1ccc(-c2ccc(S(=O)(=O)Nc3ncccn3)cc2)o1)c1cc2ccccc2cc1O`, the Potency was active: 26.7 µM. In the case of `CCS(=O)(=O)c1ncc(Cl)c(C(=O)Nc2ccc(S(=O)(=O)N(C)c3ccccc3)cc2)n1`, the Potency was inconclusive: 9.47 µM [inhibitor, partial curve]. In the case of `CC(C)C(NCc1c(Cl)cccc1Cl)C(=O)O` (configuration not stated), the max response, negative = inhibition was inactive: -2.8%. In the case of `O=C(NC(=S)N1CCCC1)c1ccccc1F`, the Potency was inconclusive: 37.7 µM [inhibitor, partial curve]. `CCOC(=O)C1CCN(C(=O)CS(=O)Cc2nc(-c3ccc(C)cc3)oc2C)CC1` (configuration not stated) was tested, and the Potency was inconclusive: 21.2 µM [inhibitor, partial curve]. With `C/C(=N\Nc1nc2ccccc2[nH]1)c1ccc2c(c1)OCCO2` the max response, negative = inhibition was inactive: -15.8%. For `Cc1nn(-c2ccc(F)cc2)c(Cl)c1/C=C(/CCC(=O)O)c1nc2ccccc2s1`, the Potency was active: 59.7 µM. With `CCOC(=O)Cc1csc(NC(=O)CSc2nc(C)cc(=O)[nH]2)n1` the Potency was active: 11.9 µM. For `CCNC(=O)COC(=O)c1sccc1C`, the max response, negative = inhibition was inconclusive: -33.7% [inhibitor]. For `O=[N+]([O-])c1ccc2cn(-c3ccccc3)nc2c1`, the max response, negative = inhibition was inactive: -11.1%. In the case of `Cc1cc(C)c(C#N)c(SCSCc2ccccc2)n1`, the max response, negative = inhibition was inconclusive: -36.2% [inhibitor]. `NC(=O)c1cc(Cc2ccccc2)sc1NC(=O)c1ccco1` was tested, and the Potency was active: 16.8 µM. In the case of `COc1ccccc1-c1cc2nc(C)c(CCC(=O)NCc3ccco3)c(C)n2n1`, the max response, negative = inhibition was inactive: -17.2%. `CN(C)C(=O)c1nnc(Cc2ccc(Cl)cc2)o1` was tested, and the Potency was inconclusive: 37.7 µM [inhibitor, single point]. For `CC(=O)NS(=O)(=O)c1ccc(NC(=O)/C=C/c2cn(-c3ccccc3)nc2-c2ccccc2)cc1`, the Potency was inconclusive: 37.7 µM [inhibitor, single point]. With `Cc1cc(C)c(NC(=O)CS(=O)CC(=O)NC2CCCc3ccccc32)c(C)c1` (configuration not stated) the max response, negative = inhibition was inconclusive: -30.8% [inhibitor]. `Cc1c(Br)c([N+](=O)[O-])nn1CCCC(=O)Nc1sc2c(c1C#N)CCC2` was tested, and the Potency was active: 5.32 µM. With `CCC(CC)NC(=O)CSc1ccc(S(=O)(=O)N2CCCCC2)cn1` the max response, negative = inhibition was inactive: -18.8%.
